Experimental data as given in article PMC12040169 (PLOS Biology, 2025).
This is one part of the list.

The compounds below were run on T1, CTL2-GFP (C. trachomatis L2/434/Bu, GFP-expressing). Settings: bulk GFP, single well; 28.5 h, 10 µM; inhibitor.
T1 construct: L2/434/Bu, GFP-expressing
Parameters: species or system HeLa; Intracellular C. trachomatis growth in HeLa cells, bulk GFP fluorescence relative to DMSO

Point of comparison: `NC(=O)COc1ccc(C2CC(=O)Nc3c(-c4cccc(F)c4)csc32)cc1` (stereo not drawn) [CBK294441], “% of control remaining” value 125.364%. Against it:
- Cc1ccc(S(=O)(=O)N(CC(=O)Nc2cccnc2)c2ccc(C)c(C)c2)cc1 [CBK263974] — higher, 129.778%
- CCNc1nc(NCc2ccccc2)nc(Oc2ccc(O)nn2)n1 [CBK266591] — higher, 133.257%
- COc1ccc2cnc(C3CCCN(C(=O)C4CC4)C3)cc2c1C (stereo not drawn) [CBK284716] — higher, 128.985%
- O=C(C1CC2C=CC1C21CC1)N1CCCC(c2nc3ccccc3[nH]2)C1 (stereo not drawn) [CBK281513] — lower, 122.588%
- Cc1cccc(-c2nc(C(N)=O)c3[nH]c(=O)n(-c4ccc(F)cc4)c3n2)c1 [CBK287632] — lower, 105.671%
- CC(Sc1nc2ccccc2c(=O)n1C)C(=O)N1CCOCC1 (stereo not drawn) [CBK305031] — higher, 143.455%
- O=S(=O)(NCc1cccnc1)c1ccc(Cl)c2ccccc12 [CBK264008] — lower, 99.03%
- Fc1cc(Br)ccc1-c1cnn(-c2ccccc2)n1 [CBK112925] — lower, 85.3888%
- Cc1nc(C)n(CC2CCCN(Cc3cn4c(C)cccc4n3)C2)n1 (stereo not drawn) [CBK304007] — lower, 103.227%
- COCCn1nc(C(=O)N(C)Cc2nc3ccccc3s2)ccc1=O [CBK305338] — lower, 100.123%
- O=C(COc1ccc([N+](=O)[O-])cc1)Nc1cccc2nsnc12 [CBK263808] — lower, 110.595%
- CC(=O)N1CCN(C(=O)C[C@@H]2C[C@@H](C(C)C)[C@H](CC#N)C=C2C)CC1 [CBK289214] — lower, 117.782%
- CCC(NC(=O)CCc1cccnc1)c1cn2cccnc2n1 (stereo not drawn) [CBK307247] — higher, 137.955%
- CC(C)(CN1CCCC1)NC(=O)c1cc(Cl)c(Cl)cc1C(=O)O [CBK287141] — higher, 161.913%
- Cc1cc(CN2CCN(S(=O)(=O)c3ccc(C(F)(F)F)cc3Cl)CC2)cc(C)c1O [CBK063074] — lower, 104.669%
- Cc1cc(=O)c(C#N)c(C)[nH]1 [CBK023326] — lower, 105.984%
- O=C(O)c1cccc(NS(=O)(=O)c2ccc(Br)cc2F)c1 [CBK155691] — lower, 91.7529%
- OCCN1CC2(CCN(CCc3c[nH]c4ccccc34)CC2)c2ccccc21 [CBK144607T] — lower, 102.022%
- Cc1ccc(-c2c(N3CCCC3)n[nH]c2C2CC2)cc1 [CBK288192] — lower, 91.2966%
- Cn1c(SCC(=O)Nc2c(F)cc(F)cc2Br)nnc1-c1cccnc1 [CBK267583] — lower, 119.041%
- Cc1cc(C)c2c(CC(=O)N(C)CCN(C)C)c(C)[nH]c2c1 [CBK282732] — higher, 135.947%
- O=C(NCc1cccs1)c1ccc(-c2ccoc2)nc1 [CBK156269] — lower, 106.092%
- O=C(O)c1ccc(N2C(=O)CC(N3CCN(C/C=C/c4ccccc4)CC3)C2=O)cc1 (stereo not drawn) [CBK261402] — lower, 100%
- Cc1c(C(=O)O)sc2nc3c(Cl)cc(C(=O)c4ccccc4O)cn3c(=O)c12 [CBK295619] — higher, 145.477%
- Cc1noc(C)c1S(=O)(=O)Nc1ccsc1C(=O)Nc1ccc(F)cc1 [CBK004604] — lower, 90.1441%
- O=C(Nc1ccc(C(F)(F)F)cc1)C1CCCS1 (stereo not drawn) [CBK006142] — higher, 132.428%
- CC(=O)c1cc(C)c(C)cc1N [CBK016322] — lower, 123.005%
- CCCn1nc(C)c(-c2cncn2CCc2c(C)nn(C)c2C)c1C [CBK281475] — lower, 118.76%
- Cc1ccc(C(=O)NC[C@H]2O[C@@H](CC(=O)N3CCOCC3)[C@H](O)[C@@H]2O)cc1 [CBK288925] — lower, 108.763%
- CC(=O)Nc1ccc(S(=O)(=O)Nc2nnc(C(C)(C)C)s2)cc1 [CBK045499] — lower, 96.4657%
- Cc1cccc(NC(=O)Cn2cc(C(=O)COc3ccccc3)c3ccccc32)c1 [CBK268654] — lower, 122.112%
- COc1cc([N+](=O)[O-])ccc1NC(=O)NCc1ccc(C(=O)O)cc1 [CBK267092] — higher, 163.487%
- CC(C)(C)NS(=O)(=O)c1ccc(NC(=O)c2cc(-c3ccccn3)nc3c(Cl)cccc23)cc1 [CBK267783] — lower, 110.592%
- CCOC(=O)c1cn(CCSCC)cc(Oc2ccccc2)c1=O [CBK307244] — lower, 85.7574%
- COc1ccccc1Cc1cccc(C2CCCN2C(=O)CCc2ccc(F)cc2)n1 (stereo not drawn) [CBK286238] — lower, 103.924%
- CC(Oc1ccccc1)C(=O)Nc1nn(Cc2ccc(S(=O)(=O)N3CCCC3)cc2)c2ccccc12 (stereo not drawn) [CBK061595] — lower, 100%
- COc1ccc(C(=O)Nc2ccc(S(=O)(=O)N3CCN(C)CC3)cc2)cc1[N+](=O)[O-] [CBK268140] — lower, 106.526%
- CCOC(=O)c1cc2cc(NC(=O)N(CCO)C3CC3)ccc2s1 [CBK306007] — higher, 130.372%
